Measured values published in patent US20260224550A1, “PDE4 DEGRADERS, PHARMACEUTICAL COMPOSITIONS, AND THERAPEUTIC APPLICATIONS” (BioTheryX, Inc., priority 2023, published 2026).
Some results were stated once for a whole list of compounds, not compound by compound.

Sequences of proteins named here, by UniProt entry; tags and fusion partners are left off. A change or cut given only in a name is not applied to a line headed by its entry.
UniProt Q07343: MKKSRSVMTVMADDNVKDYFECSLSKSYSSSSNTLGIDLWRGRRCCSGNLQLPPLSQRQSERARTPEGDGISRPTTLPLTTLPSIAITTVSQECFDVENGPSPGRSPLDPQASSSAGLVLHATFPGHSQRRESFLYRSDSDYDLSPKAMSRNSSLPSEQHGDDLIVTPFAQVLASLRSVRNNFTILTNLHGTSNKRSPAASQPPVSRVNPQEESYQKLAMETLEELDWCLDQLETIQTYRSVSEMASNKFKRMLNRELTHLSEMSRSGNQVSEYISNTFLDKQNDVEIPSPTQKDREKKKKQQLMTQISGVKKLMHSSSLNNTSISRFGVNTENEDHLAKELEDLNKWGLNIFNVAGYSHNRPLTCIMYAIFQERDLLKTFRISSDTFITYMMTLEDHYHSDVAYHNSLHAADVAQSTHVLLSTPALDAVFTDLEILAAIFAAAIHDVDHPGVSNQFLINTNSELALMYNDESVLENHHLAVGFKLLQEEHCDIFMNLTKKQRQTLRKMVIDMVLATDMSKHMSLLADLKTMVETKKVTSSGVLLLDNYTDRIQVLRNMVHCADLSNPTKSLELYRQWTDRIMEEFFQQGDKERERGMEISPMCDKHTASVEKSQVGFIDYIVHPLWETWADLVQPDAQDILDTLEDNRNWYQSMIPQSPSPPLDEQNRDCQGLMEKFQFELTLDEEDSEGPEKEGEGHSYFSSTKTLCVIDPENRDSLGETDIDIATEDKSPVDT

Assays:
[1] = tested on: PDE4D, in particular, PDE4D short isoform; experiment: Protein degradation assay in A549 cells (western blot): PDE4D; assay type: cell-based; conditions: 24 h, as high as about
Procedure: A549 cells were grown in RPMI 1640 media supplemented with 10% fetal bovine serum, streptomycin, and penicillin. The cells were plated in 6-well plates at 300,000 cells/well in the growth media. After overnight incubation, the cells were treated with DMSO (control) or a compound at predetermined concentrations (e.g., 10 nM, 100 nM, 1 μM, 3 μM, or 10 μM) for 24 h at 37° C. under 5% CO2. Whole cell extracts were prepared using an immunoprecipitation (IP) lysis buffer. The cells were washed once in PBS, and the cell pellets were resuspended in the IP lysis buffer and incubated for 15 min on ice. Cells debris was removed by centrifugation and the cleared whole cell lysates were transferred to new tubes for further analysis.
For a western blot analysis, the whole cell protein extracts were separated on 4-12% SDS-polyacrylamide gels, transferred to nitrocellulose, and probed with primary antibodies. Membranes were subsequently washed and probed with IRDYE® secondary antibodies. The signals were detected using an ODYSSEY® Imaging System. The antibodies used in the assay included anti-PDE4B antibody; anti-PDE4D antibodies (top, bottom, and short isoform); β-actin mouse monoclonal antibody; IRDYE® 680RD goat anti-rabbit antibody; and IRDYE® 800CW goat anti-mouse antibody.

[2] = target: T1, PDE4B (Homo sapiens, UniProt Q07343); experiment: Protein degradation assay in A549 cells (western blot): PDE4B; assay type: cell-based; conditions: 24 h, as high as about
T1 construct: Whole cell extracts were prepared using an immunoprecipitation (IP) lysis buffer; endogenous in cells; host or cells: A549

Row | SMILES | degradation of PDE4D, in particular PDE4D short isoform, relative to DMSO [1] | degradation of PDE4B relative to DMSO [2]
1 | CCOc1cc([C@@H](CS(C)(=O)=O)N2C(=O)c3ccc(N4CCC(C5CCN(Cc6ccc(Oc7ccc8c(C9CCC(=O)NC9=O)nn(C)c8c7)cc6)CC5)CC4)cc3C2=O)ccc1OC (stereo partly drawn) [Compound B001, 5-(1′-(4-((3-(2,6-dioxopiperidin-3-yl)-1-methyl-1H-indazol-6-yl)oxy)benzyl)-[4,4′-bipiperidin]-1-yl)-2-((S)-1-(3-ethoxy-4-methoxyphenyl)-2-(methylsulfonyl)ethyl)-isoindoline-1,3-dione] | ≤ 95% | ≤ 70%
2 | CCOc1cc([C@@H](CS(C)(=O)=O)N2C(=O)c3ccc(N4CCN(CC5CCN(Cc6ccc(Oc7ccc8c(C9CCC(=O)NC9=O)nn(C)c8c7)cc6)CC5)CC4)cc3C2=O)ccc1OC (stereo partly drawn) [Compound B002, 5-(4-((1-(4-((3-(2,6-dioxopiperidin-3-yl)-1-methyl-1H-indazol-6-yl)oxy)benzyl)-piperidin-4-yl)methyl)piperazin-1-yl)-2-((S)-1-(3-ethoxy-4-methoxyphenyl)-2-(methylsulfonyl)-ethyl)isoindoline-1,3-dione] | ≤ 95% | ≤ 70%
3 | CCOc1cc([C@@H](CS(C)(=O)=O)N2C(=O)c3cccc(N4CCN(CC5CCN(Cc6ccc(Oc7ccc8c(C9CCC(=O)NC9=O)nn(C)c8c7)cc6)CC5)CC4)c3C2=O)ccc1OC (stereo partly drawn) [Compound B007, 4-(4-((1-(4-((3-(2,6-dioxopiperidin-3-yl)-1-methyl-1H-indazol-6-yl)oxy)benzyl)-piperidin-4-yl)methyl)piperazin-1-yl)-2-((S)-1-(3-ethoxy-4-methoxyphenyl)-2-(methylsulfonyl)-ethyl)isoindoline-1,3-dione] | ≤ 95% | ≤ 70%
4 | CCOc1cc([C@@H](CS(C)(=O)=O)N2C(=O)c3cccc(N4CCC(C5CCN(Cc6ccc(Oc7ccc8c(C9CCC(=O)NC9=O)nn(C)c8c7)cc6)CC5)CC4)c3C2=O)ccc1OC (stereo partly drawn) [Compound B003, 4-(1′-(4-((3-(2,6-dioxopiperidin-3-yl)-1-methyl-1H-indazol-6-yl)oxy)benzyl)-[4,4′-bipiperidin]-1-yl)-2-((S)-1-(3-ethoxy-4-methoxyphenyl)-2-(methylsulfonyl)ethyl)-isoindoline-1,3-dione] | ≤ 95% | ≤ 70%
